The values are deposited in ChEMBL (CHEMBL3988442, “University of Dundee, Small-Polar-MMV Screening Library” (2021)).

Sequences of proteins named here, by UniProt entry; tags and fusion partners are left off. Residues count along the entry.
UniProt P9WFT3, whole entry: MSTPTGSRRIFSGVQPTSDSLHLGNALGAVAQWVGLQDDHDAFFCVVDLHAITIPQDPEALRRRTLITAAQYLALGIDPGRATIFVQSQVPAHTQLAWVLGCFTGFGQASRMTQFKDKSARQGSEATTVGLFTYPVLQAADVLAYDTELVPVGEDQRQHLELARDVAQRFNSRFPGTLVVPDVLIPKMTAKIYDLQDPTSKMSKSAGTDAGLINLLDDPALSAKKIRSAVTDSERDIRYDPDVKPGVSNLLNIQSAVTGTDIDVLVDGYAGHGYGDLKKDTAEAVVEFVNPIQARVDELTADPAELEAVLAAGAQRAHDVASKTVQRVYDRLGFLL
UniProt P9WPC5, whole entry: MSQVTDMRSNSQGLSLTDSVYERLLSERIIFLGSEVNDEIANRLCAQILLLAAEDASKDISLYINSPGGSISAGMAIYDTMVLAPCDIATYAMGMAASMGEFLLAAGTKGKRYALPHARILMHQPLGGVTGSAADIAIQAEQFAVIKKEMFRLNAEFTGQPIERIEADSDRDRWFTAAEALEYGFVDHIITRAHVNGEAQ
UniProt P9WPC3, whole entry partner: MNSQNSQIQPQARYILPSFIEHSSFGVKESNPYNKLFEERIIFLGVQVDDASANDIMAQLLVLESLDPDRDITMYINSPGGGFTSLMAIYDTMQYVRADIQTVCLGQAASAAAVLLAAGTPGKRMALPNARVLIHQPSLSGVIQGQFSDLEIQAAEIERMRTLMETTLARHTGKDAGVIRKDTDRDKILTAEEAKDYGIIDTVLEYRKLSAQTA
UniProt Q4DA54, 1-478: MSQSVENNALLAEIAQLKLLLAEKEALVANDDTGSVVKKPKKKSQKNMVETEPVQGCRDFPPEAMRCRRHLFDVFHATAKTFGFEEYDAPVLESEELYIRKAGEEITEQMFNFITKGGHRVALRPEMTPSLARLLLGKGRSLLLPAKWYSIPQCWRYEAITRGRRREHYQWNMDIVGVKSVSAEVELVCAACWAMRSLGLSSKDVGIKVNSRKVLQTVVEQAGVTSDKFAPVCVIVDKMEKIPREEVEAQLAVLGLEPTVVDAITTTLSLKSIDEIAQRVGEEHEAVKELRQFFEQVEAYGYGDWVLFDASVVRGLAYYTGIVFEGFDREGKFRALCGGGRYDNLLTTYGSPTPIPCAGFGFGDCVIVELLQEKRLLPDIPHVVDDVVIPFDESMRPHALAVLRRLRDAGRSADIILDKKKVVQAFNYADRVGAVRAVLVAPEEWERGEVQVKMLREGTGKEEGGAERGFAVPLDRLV

MtTrpRS: 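Tryptophan-tRNA ligase, Mycobacterium tuberculosis (UniProt P9WFT3). Enzyme assay of tryptophanyl-tRNA synthetase; the read-out is not stated. Concentration: 10 µM. Direction is not recorded; retested compounds ran higher, which suggests that high means inhibition. Size under these conditions: about 65,000 compounds, about 64 of them at 50% or above in at least one test.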
ClpP1P2: 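ClpP1P2, Mycobacterium tuberculosis (UniProt P9WPC5 and UniProt P9WPC3). Protease assay of ClpP1P2, read by the AMC dye that it sets free. Tested at 50 µM. Direction is inferred from only a few compounds that gave an IC50; most scored high, so higher reads as stronger inhibition. Most other retested compounds had strongly negative values. Size under these conditions: about 69,000 compounds, about 10 of them at 50% or above in at least one test.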
TcHisRS: 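Histidine-tRNA ligase, Trypanosoma cruzi CL Brener (UniProt Q4DA54). Enzyme assay of histidyl-tRNA synthetase; the read-out is not stated. Compounds at 30 µM. Direction is inferred from retests: higher values go with stronger inhibition. Of about 69,000 compounds tested this way, about 31 (0.045%) reached 50% or more in at least one test.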

Results are given as percent effect. The record does not define 0% and 100%; most values in the screen are far below 50% and negative numbers occur (in some assays of this library far below -100). Compounds were drawn at random from those tested, without regard to their results.

SMILES: COc1ccc(CN(C(=O)C(C)SC)c2cnn(C)c2)c(OC)c1 (centres unmarked)
MtTrpRS: -1.791%
ClpP1P2: -6.338%
TcHisRS: 6.404%

SMILES: Cc1noc(C)c1-c1cncc(C2CCCN2Cc2ccncc2)n1 (centres unmarked)
MtTrpRS: -0.4181%
ClpP1P2: -6.278%
TcHisRS: 0.5405%

SMILES: CC(=O)NCc1cc(-c2cccs2)n(C2CCCC2)n1
MtTrpRS: 2.34%
ClpP1P2: -17.15%
TcHisRS: 6%

SMILES: CN(C)C[C@]12COC[C@H]1CN(Cc1ccccn1)C2
MtTrpRS: -6.492%
ClpP1P2: 6.77%
TcHisRS: 3.448%

SMILES: COc1cc2c(cc1OC)S(=O)(=O)N(Cc1ccccc1C)C2=O
MtTrpRS: 11.76%
ClpP1P2: 0.04388%
TcHisRS: 3.947%

SMILES: CC1CN(S(=O)(=O)c2ccc(F)cc2)c2cccnc2O1 (centres unmarked)
MtTrpRS: 6.62%
ClpP1P2: -19.77%
TcHisRS: 5.419%

SMILES: CCCNC(=O)c1cc2c(c3ccccc3n2C)n1C(=O)N(C)C
MtTrpRS: -0.8629%
ClpP1P2: -31.8%
TcHisRS: 4.918%

SMILES: COCCC(C)NCc1ccccc1-n1ccnc1 (centres unmarked)
MtTrpRS: -0.08211%
ClpP1P2: 7.911%
TcHisRS: 8.333%

SMILES: Cc1cnn(CC2CCCN2Cc2nc3ccccc3c(=O)[nH]2)c1 (centres unmarked)
MtTrpRS: 4.283%
ClpP1P2: -25.05%
TcHisRS: 5.187%

SMILES: Cc1ccc(NC(C)C(=O)N(C)Cc2cccc(F)c2)cc1C(N)=O (centres unmarked)
MtTrpRS: 0.4409%
ClpP1P2: -2.898%
TcHisRS: 3.941%

SMILES: CN(C)Cc1cn(-c2ccccc2C(=O)NCCC2CCCN2C)cn1 (centres unmarked)
MtTrpRS: 15.99%
ClpP1P2: 5.175%
TcHisRS: 1.695%

SMILES: Cc1nsc(NC2CCOC3(CCCC3)C2)n1 (centres unmarked)
MtTrpRS: -1.343%
ClpP1P2: -1.561%
TcHisRS: 4.082%

SMILES: CNC(=O)c1nnc2ccc(N3CCOCC3)cc2n1
MtTrpRS: -0.6477%
ClpP1P2: 18.04%
TcHisRS: 4.348%

SMILES: O=C(c1ccccc1F)N1CCCn2c(CN3CCCCC3)nnc2C1
MtTrpRS: -4.625%
ClpP1P2: 1.349%
TcHisRS: 8.163%

SMILES: CCSc1cc(C(=O)NC2CCN(C(=O)c3ccccc3)CC2)ccn1
MtTrpRS: -0.3268%
ClpP1P2: -6.248%
TcHisRS: 10.84%

SMILES: CC(Cc1ccco1)NC(=O)Nc1cccnc1 (centres unmarked)
MtTrpRS: 6.76%
ClpP1P2: -5.175%
TcHisRS: 2.353%

SMILES: Cc1nc(C)c(C(=O)Nc2ccc(-c3nnc(N(C)C)o3)cc2)o1
MtTrpRS: -2.167%
ClpP1P2: -0.663%
TcHisRS: 7.182%

SMILES: CC(=O)Nc1ccc(CNC(C)c2c(C)nn(C)c2C)cc1 (centres unmarked)
MtTrpRS: 12.64%
ClpP1P2: -10.05%
TcHisRS: 0%

SMILES: COCCn1c(-c2cccc(OC)c2)cnc1NC(=O)NC1CCCC1
MtTrpRS: 4.703%
ClpP1P2: -9.752%
TcHisRS: 4.878%

SMILES: O=C(c1ccsc1)N1C[C@@H]2CCN(C(=O)c3cccc(F)c3)[C@@H]2C1
MtTrpRS: -4.285%
ClpP1P2: -10.39%
TcHisRS: 3.883%

SMILES: Cc1nnsc1C(=O)N1CC(c2nc3ccccc3[nH]2)C1
MtTrpRS: -1.36%
ClpP1P2: -18.11%
TcHisRS: 9.697%

SMILES: O=S(=O)(CC1CCCN1S(=O)(=O)C1CC1)c1ccccc1 (centres unmarked)
MtTrpRS: -0.5693%
ClpP1P2: -14.8%
TcHisRS: 2%

SMILES: O=C(O)c1ccn(-c2ccccc2NS(=O)(=O)c2cccc(Cl)c2F)n1
MtTrpRS: 2.534%
ClpP1P2: -7.223%
TcHisRS: 8.333%

SMILES: CNC(=O)[C@@]12CCO[C@@H]1CCN(S(=O)(=O)c1ccccc1C)C2
MtTrpRS: -5.231%
ClpP1P2: -0.559%
TcHisRS: 2.041%

SMILES: c1ncn(Cc2cn3c(n2)CN(CC2CCCC2)CC3)n1
MtTrpRS: -4.843%
ClpP1P2: 2.391%
TcHisRS: 10.87%

SMILES: CC(C)N1CCOCC2(CCCN(C(=O)c3cncn3C)C2)C1 (centres unmarked)
MtTrpRS: -1.26%
ClpP1P2: -9.184%
TcHisRS: 4.908%

The last 3 entries again:

- CNC(=O)[C@@]12CCO[C@@H]1CCN(S(=O)(=O)c1ccccc1C)C2 : MtTrpRS: -5.231%; ClpP1P2: -0.559%; TcHisRS: 2.041%
- c1ncn(Cc2cn3c(n2)CN(CC2CCCC2)CC3)n1 : MtTrpRS: -4.843%; ClpP1P2: 2.391%; TcHisRS: 10.87%
- CC(C)N1CCOCC2(CCCN(C(=O)c3cncn3C)C2)C1 (centres unmarked) : MtTrpRS: -1.26%; ClpP1P2: -9.184%; TcHisRS: 4.908%